Data on three sequences can be found in publication PMC10761072, “Post-transcriptional capping generates coenzyme A-linked RNA” (RNA Biology, 2023).

Protein sequences, listed by entry. Tags and fused reporters are not part of them. Lines headed by an entry give the natural chain unless they say otherwise; changes in a name come on top.
UniProt P0A6I6: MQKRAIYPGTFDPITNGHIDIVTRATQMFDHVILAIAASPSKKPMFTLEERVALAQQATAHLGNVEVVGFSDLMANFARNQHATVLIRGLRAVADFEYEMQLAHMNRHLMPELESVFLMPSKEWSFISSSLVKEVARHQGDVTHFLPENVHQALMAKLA

The series has as its target PPAT (phosphopantetheine adenylyltransferase, CoaD) (Escherichia coli) (UniProt P0A6I6). The experiment in a line: filter binding. The note with it: 20 mM Tris pH 7.5, 100 mM NaCl, 10 mM KCl, 1 mM MgCl2, 37 C, 15 min, trace refolded radiolabelled RNA, nitrocellulose filters, recombinant protein, label: 3'-end 32P-dC extension.

Construct, isoform or probe ends are uncertain for at least one entry.

For “AGGAGCAGACGAUUCGUCACACGUCCUGCUCUCGGCUGGAAACUACUCAUCAUCAUCGAGCUGGCAGUCGCAAAAAACCCCGCUUCGGCGGGGUUUUUUCGC [D2* RNA]”, where the note is “PPAT titration, no significant difference from D7*”, the binding result is “binds”.
In the case of “AGGACCAGAGCAGACGAUUCGUCACACGUCCUGCUCUCGGCUGGAAACACGUAAUCAUCAUCGAGCUGGCAGUCGCAAAAAACCCCGCUUCGGCGGGGUUUUUUCGC [D7* RNA]”, the binding result (PPAT titration, no significant difference from D2*) is given as “binds”.
For AGGACCAGUGCGAAAGCACACA [D7 5'OH RNA], under “1 or 3 uM PPAT, binding not reduced vs D7, 5'-OH instead of 5' triphosphate”, the binding result is recorded as “binds”.
